# Assay results taken from article PMC11638703 (RSC Advances, 2024).
# pIC50: −log10 of the molar value.
# Tested on: MCF-7 cells
# Assay: Cytotoxicity, MTT assay, MCF-7 cells
# Format: cell-based
# Conditions: Homo sapiens, MCF7, read-out: IC50 ± SD
structure (smiles),measurement,value
"CN[C@@H]1C[C@H]2O[C@@](C)([C@@H]1OC)n1c3ccccc3c3c4c(c5c6ccccc6n2c5c31)C(=O)NC4 [Staurosporine, reference compound]",pIC50,5.17
